The test concerns the target T1, Ubiquitin-specific protease 15 (USP15) in SUM159 cells (human (in human SUM159 cells; endogenous or HA-tagged not told)) (UniProt Q9Y4E8).
T1 sequence: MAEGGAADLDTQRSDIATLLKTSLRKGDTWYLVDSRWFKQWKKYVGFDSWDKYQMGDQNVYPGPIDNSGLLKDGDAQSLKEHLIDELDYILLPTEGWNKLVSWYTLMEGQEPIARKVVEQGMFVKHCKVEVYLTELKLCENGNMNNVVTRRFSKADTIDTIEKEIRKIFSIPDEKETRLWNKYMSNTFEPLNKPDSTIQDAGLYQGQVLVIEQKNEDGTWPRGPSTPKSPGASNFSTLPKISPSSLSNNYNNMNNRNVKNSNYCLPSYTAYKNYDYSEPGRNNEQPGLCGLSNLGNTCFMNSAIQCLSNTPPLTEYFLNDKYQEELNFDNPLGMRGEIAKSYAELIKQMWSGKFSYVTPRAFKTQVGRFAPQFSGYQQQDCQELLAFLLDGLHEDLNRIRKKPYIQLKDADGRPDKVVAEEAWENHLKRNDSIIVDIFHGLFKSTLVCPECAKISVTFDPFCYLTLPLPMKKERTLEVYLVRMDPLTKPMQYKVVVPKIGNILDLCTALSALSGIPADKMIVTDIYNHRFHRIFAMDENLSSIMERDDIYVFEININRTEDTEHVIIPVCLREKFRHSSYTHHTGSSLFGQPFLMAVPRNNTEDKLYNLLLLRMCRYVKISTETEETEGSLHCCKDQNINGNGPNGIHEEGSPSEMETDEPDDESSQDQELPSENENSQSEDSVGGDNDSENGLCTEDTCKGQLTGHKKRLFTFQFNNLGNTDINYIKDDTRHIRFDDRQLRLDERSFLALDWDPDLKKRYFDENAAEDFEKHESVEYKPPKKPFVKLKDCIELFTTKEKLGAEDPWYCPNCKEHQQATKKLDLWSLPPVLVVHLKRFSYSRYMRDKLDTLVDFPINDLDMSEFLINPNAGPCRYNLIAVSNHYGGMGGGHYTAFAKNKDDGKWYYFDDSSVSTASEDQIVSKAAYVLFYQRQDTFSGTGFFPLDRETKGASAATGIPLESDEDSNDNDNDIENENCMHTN
Description: affinity purification with mass spectrometry; Co-IP and mass spectroscopy from SUM159-IL1R2/-sIL1R2 and MB231-IL1R2/-sIL1R2 cells.

These are yes or no findings as the source states them, for the method shown. In cells and extracts the contact can be indirect. These calls come from enrichment with a bait or labelling near it, and not all partners need be listed. Tags and fused reporters may be left off the sequences shown.

B1: Full-length interleukin-1 receptor type 2 (IL1R2) with a C-terminal FLAG tag (receptor, UniProt P27930-1 14-398)
chain: FTLQPAAHTGAARSCRFRGRHYKREFRLEGEPVALRCPQVPYWLWASVSPRINLTWHKNDSARTVPGEEETRMWAQDGALWLLPALQEDSGTYVCTTRNASYCDKMSIELRVFENTDAFLPFISYPQILTLSTSGVLVCPDLSEFTRDKTDVKIQWYKDSLLLDKDNEKFLSVRGTTHLLVHDVALEDAGYYRCVLTFAHEGQQYNITRSIELRIKKKKEETIPVIISPLKTISASLGSRLTIPCKVFLGTGTPLTTMLWWTANDTHIESAYPGGRVTEGPRQEYSENNENYIEVPLIFDPVTREDLHMDFKCVVHNTLSFQTLRTTVKEASSTFSWGIVLAPLSLAFLVLGGIWMHRRCKHRTGKADGLTVLWPHHQDFQSYPK
As to B1, the binding result was “binds”.

Values taken from article PMC6947699.
